The assay addresses T1, HsClp1 (human) (UniProt Q92989).
T1 sequence (looked up): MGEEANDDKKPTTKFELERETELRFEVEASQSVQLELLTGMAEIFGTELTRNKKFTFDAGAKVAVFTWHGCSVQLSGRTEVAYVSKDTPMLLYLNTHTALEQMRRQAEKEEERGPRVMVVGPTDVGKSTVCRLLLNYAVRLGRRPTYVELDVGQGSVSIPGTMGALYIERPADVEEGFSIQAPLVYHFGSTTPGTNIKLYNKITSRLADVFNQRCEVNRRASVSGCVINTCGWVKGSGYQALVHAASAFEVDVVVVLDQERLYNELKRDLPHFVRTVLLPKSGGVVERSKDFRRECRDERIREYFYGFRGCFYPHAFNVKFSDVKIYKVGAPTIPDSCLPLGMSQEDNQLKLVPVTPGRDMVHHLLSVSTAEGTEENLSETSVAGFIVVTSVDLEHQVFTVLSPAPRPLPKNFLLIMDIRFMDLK
Kind of assay: co-purification (anti-Flag then Ni beads), SDS-PAGE, silver staining, mass spectrometry.

These are yes or no findings as the source states them, for the method shown. Binding seen in cells or lysates may run through a third protein. Here binding means that the protein was enriched with, or labelled near, the bait; the list need not be complete. Where a sequence is shown, tags or fusion partners need not be part of it.

B1: His-Flag-HsSen54 (protein, human, UniProt Q7Z6J9 1-526, looked up, not shown: small tags and cut ends)
chain: MEPEPEPAAVEVPAGRVLSARELFAARSRSQKLPQRSHGPKDFLPDGSAAQAERLRRCREELWQLLAEQRVERLGSLVAAEWRPEEGFVELKSPAGKFWQTMGFSEQGRQRLHPEEALYLLECGSIHLFHQDLPLSIQEAYQLLLTDHTVTFLQYQVFSHLKRLGYVVRRFQPSSVLSPYERQLNLDASVQHLEDGDGKRKRSSSSPRSINKKAKALDNSLQPKSLAASSPPPCSQPSQCPEEKPQESSPMKGPGGPFQLLGSLGPSPGPAREGVGCSWESGRAENGVTGAGKRRWNFEQISFPNMASDSRHTLLRAPAPELLPANVAGRETDAESWCQKLNQRKEKLSRREREHHAEAAQFQEDVNADPEVQRCSSWREYKELLQRRQVQRSQRRAPHLWGQPVTPLLSPGQASSPAVVLQHISVLQTTHLPDGGARLLEKSGGLEIIFDVYQADAVATFRKNNPGKPYARMCISGFDEPVPDLCSLKRLSYQSGDVPLIFALVDHGDISFYSFRDFTLPQDVGH
On to B1, for which the binding entry is “binds”.

The values are drawn from patent US20050053985A1.
